# Assay results from PubChem BioAssay AID248 (DTP/NCI, 2004).
# The list shows only some results of the screen, not a fair sample: it gathers tests that were run many times, whatever their T/C, doses with no T/C, and many T/C values between a quarter and a half above the control. Other doses and runs of a compound stand elsewhere. T/C is the treated group as % of the vehicle group. Some entries give survivors of the animals treated and no T/C: the source holds a T/C of zero for them, seemingly a mark for toxic or unscored doses. Some doses without a T/C left all or most animals alive at the check, yet need not have been tolerated: the source hardly ever lists a survival T/C far under the control, and the zero likely stands for such cases as well. Counts of survivors are from the toxicity check (mostly the fifth day) where no day follows; animals may have died later. Schedule codes are those of the source, read here as Q, the interval in days (D) or hours (H), X, the number of doses. Some entries were tested several times; the values are given in rising order. For survival time, this PubChem deposit counts one and a half times the control or more as active, and values a quarter to a half above the control carry no call in these data; other NCI protocols may use other cut-offs. Brackets with × give the number of equal values in this list. Some T/C values are followed by the survivors on the day toxicity was checked, most often the fifth; without a count, all were alive then.
# Test system: L1210 leukemia ip in BDF1 mice, survival T/C
# Experiment: NCI In Vivo Anticancer Drug Screen. Data for tumor model L1210 Leukemia (intraperitoneal) in B6D2F1 (BDF1) mice
# Conditions: T/C endpoint: mean survival time, higher T/C = longer survival
# [1] = dose: 400.0 mg/kg/injection, schedule: Q01DX009 (ip), vehicle: Klucel (hydroxypropylcellulose) (HPC)
# [2] = dose: 200.0 mg/kg/injection, schedule: Q01DX001 (ip), vehicle: Klucel (hydroxypropylcellulose) (HPC)
# [3] = dose: 400.0 mg/kg/injection, schedule: Q01DX001 (ip), vehicle: Klucel (hydroxypropylcellulose) (HPC)
# [4] = dose: 200.0 mg/kg/injection, schedule: Q04DX003 (ip), vehicle: saline
# [5] = dose: 400.0 mg/kg/injection, schedule: Q04DX003 (ip), vehicle: saline
# [6] = dose: 200.0 mg/kg/injection, schedule: Q01DX009 (ip), vehicle: saline with Tween-80
# [7] = dose: 400.0 mg/kg/injection, schedule: Q01DX009 (ip), vehicle: saline with Tween-80
# [8] = dose: 200.0 mg/kg/injection, schedule: Q01DX009 (ip), vehicle: Klucel (hydroxypropylcellulose) (HPC)
# [9] = dose: 100.0 mg/kg/injection, schedule: Q01DX009 (ip), vehicle: Klucel (hydroxypropylcellulose) (HPC)
# [10] = dose: 400.0 mg/kg/injection, schedule: Q04DX003 (ip), vehicle: saline with Tween-80
# [11] = dose: 400.0 mg/kg/injection, schedule: Q01DX001 (ip), vehicle: saline
# [12] = dose: 400.0 mg/kg/injection, schedule: Q04DX003 (ip), vehicle: Klucel (hydroxypropylcellulose) (HPC)
# [13] = dose: 100.0 mg/kg/injection, schedule: Q04DX003 (ip), vehicle: saline with Tween-80
# [14] = dose: 100.0 mg/kg/injection, schedule: Q01DX009 (ip), vehicle: saline with Tween-80
# [15] = dose: 50.0 mg/kg/injection, schedule: Q04DX002 (ip), vehicle: other
# [16] = dose: 100.0 mg/kg/injection, schedule: Q04DX002 (ip), vehicle: other
# [17] = dose: 200.0 mg/kg/injection, schedule: Q04DX002 (ip), vehicle: other
# [18] = dose: 400.0 mg/kg/injection, schedule: Q04DX002 (ip), vehicle: other
smiles,measurement,setting,value
Cc1cc2nc3c(=O)[nH]c(=O)nc-3n(CCN(CCCl)CCCl)c2cc1C,T/C,"dose: 100.0 mg/kg/injection, schedule: Q01DX001 (ip), vehicle: carboxymethylcellulose (CMC)",133 % of control
same,T/C,"dose: 176.0 mg/kg/injection, schedule: Q01DX001 (ip), vehicle: carboxymethylcellulose (CMC)",143 % of control
same,T/C,"dose: 200.0 mg/kg/injection, schedule: Q01DX001 (ip), vehicle: carboxymethylcellulose (CMC)",138 % of control
same,survivor count,"dose: 200.0 mg/kg/injection, schedule: Q01DX015 (ip), vehicle: carboxymethylcellulose (CMC)",5 of 6
same,T/C,"dose: 268.0 mg/kg/injection, schedule: Q01DX001 (ip), vehicle: carboxymethylcellulose (CMC)",138 % of control [5 of 6 alive]
same,T/C,"dose: 400.0 mg/kg/injection, schedule: Q01DX001 (ip), vehicle: carboxymethylcellulose (CMC)",147 % of control
CC(=O)OC1CCC(NC(=O)N(CCCl)N=O)CC1 (stereo not given),T/C,"dose: 7.5 mg/kg/injection, schedule: Q01DX001 (ip), vehicle: other",138 % of control
same,survivor count,"dose: 125.0 mg/kg/injection, schedule: Q01DX001 (ip), vehicle: other",8 of 10
same,survivor count,"dose: 250.0 mg/kg/injection, schedule: Q01DX001 (ip), vehicle: other",4 of 10
same,survivor count,"dose: 375.0 mg/kg/injection, schedule: Q01DX001 (ip), vehicle: other",0 of 10
same,survivor count,"dose: 500.0 mg/kg/injection, schedule: Q01DX001 (ip), vehicle: other",0 of 10
CC(CCNc1ccc(NCCC(C)CC(C)(C)C)cc1)CC(C)(C)C (stereo not given),survivor count,[1],6 of 6
CC1(C)CCC(C)(C)C(=O)C1=O,survivor count,"dose: 80.0 mg/kg/injection, schedule: Q01DX001 (ip), vehicle: Klucel (hydroxypropylcellulose) (HPC)",2 of 6
same,survivor count,"dose: 100.0 mg/kg/injection, schedule: Q01DX001 (ip), vehicle: Klucel (hydroxypropylcellulose) (HPC)",1 of 6
same,survivor count,[2],0 of 6
same,survivor count,[3],0 of 6
Cc1cc([N+](=O)[O-])cc(C)c1OC(=O)c1ccc(N=C(N)N)cc1,survivor count,"dose: 12.5 mg/kg/injection, schedule: Q01DX009 (ip), vehicle: saline",6 of 6
same,survivor count,"dose: 25.0 mg/kg/injection, schedule: Q01DX009 (ip), vehicle: saline",3 of 6
same,survivor count,"dose: 100.0 mg/kg/injection, schedule: Q01DX009 (ip), vehicle: saline",0 of 6
same,survivor count,[4],3 of 6
same,survivor count,[5],2 of 6
COc1ccc(Cl)c(NC(=O)Nc2cc(Cl)ccc2C)c1,survivor count,[6],3 of 3
same,survivor count,[7],3 of 3
COc1ccc2c(CSc3ncnc4nc[nH]c34)cc(=O)oc2c1,survivor count,"dose: 100.0 mg/kg/injection, schedule: Q04DX002 (ip), vehicle: Klucel (hydroxypropylcellulose) (HPC)",3 of 3
CC(C)Oc1ccc2ccccc2c1,survivor count,"dose: 100.0 mg/kg/injection, schedule: Q04DX003 (ip), vehicle: saline",6 of 6
same,survivor count,[4],6 of 6
same,survivor count,[5],6 of 6
CC(=O)Nc1ccc(OC(=O)Nc2ccccc2Cl)cc1,survivor count,[8],2 of 6
CCCC(C(=O)O)(c1ccccc1)c1ccccc1,survivor count,"dose: 400.0 mg/kg/injection, schedule: Q04DX002 (ip), vehicle: gum acacia",2 of 3
Nc1nc(N)c(CCCOc2ccccc2Cl)c(N)n1,survivor count,[3],2 of 6
CC(C)C(CCN1CCCCC1)(CNC1=NCCN1)c1cccc2ccccc12 (stereo not given),survivor count,[9],0 of 6
same,survivor count,[8],0 of 6
same,survivor count,[1],0 of 6
O=C(O)CC(NC(=O)OCc1ccccc1)c1ccc(Cl)cc1 (stereo not given),survivor count,[7],0 of 3 and 2 of 6
O=[N+]([O-])c1ccc2c(c1)S(=O)c1ccccc1-2 (stereo not given),survivor count,[10],3 of 6
O=C(COc1ccc(Cl)c(Cl)c1)Nc1ccc[n+](Cc2c(Cl)cccc2S(=O)(=O)F)c1,survivor count,[11],2 of 6
C[C@@H]1CC[C@@]2(NC1)O[C@H]1C[C@H]3[C@@H]4CC=C5C[C@@H](O)CC[C@]5(C)[C@H]4CC[C@]3(C)[C@H]1[C@@H]2C,survivor count,[12],6 of 6
c1ccc2c(NC3=NCCO3)c3ccccc3nc2c1,survivor count,[13],3 of 6
same,survivor count,"dose: 200.0 mg/kg/injection, schedule: Q04DX003 (ip), vehicle: saline with Tween-80",0 of 6
same,survivor count,[10],0 of 6
CCCOC(=O)CSC#N,survivor count,"dose: 20.0 mg/kg/injection, schedule: Q01DX001 (ip), vehicle: saline",1 of 4
same,survivor count,"dose: 40.0 mg/kg/injection, schedule: Q01DX001 (ip), vehicle: saline",1 of 4
same,survivor count,"dose: 80.0 mg/kg/injection, schedule: Q01DX001 (ip), vehicle: saline",0 of 4
same,survivor count,"dose: 100.0 mg/kg/injection, schedule: Q01DX001 (ip), vehicle: saline",0 of 4
same,survivor count,"dose: 200.0 mg/kg/injection, schedule: Q01DX001 (ip), vehicle: saline",0 of 4
same,survivor count,[11],0 of 4
O=C(COCC(=O)N/N=C/c1ccc(Cl)c(Cl)c1)N/N=C/c1ccc(Cl)c(Cl)c1,survivor count,"dose: 50.0 mg/kg/injection, schedule: Q01DX009 (ip), vehicle: saline with Tween-80",6 of 6
same,survivor count,[14],6 of 6
same,survivor count,[13],6 of 6
same,survivor count,[6],6 of 6
same,survivor count,[10],6 of 6
CCc1ccccc1NC(=O)NCc1ccc(C)c(C)c1,survivor count,[9],6 of 6
N#Cc1nc2c(nc1C#N)-c1ccccc1/C2=C1/C(=O)Cc2ccccc21,T/C,[15],"90, 98, 101 % of control"
same,survivor count,[15],3 of 3
same,T/C,[16],"86, 87, 89, 93, 99, 101 % of control"
same,survivor count,[16],3 of 3 and 6 of 6
same,T/C,[17],"89, 93, 101 (2×), 107 % of control"
same,survivor count,[17],3 of 3
same,T/C,[18],86 and 92 % of control
same,survivor count,[18],0 of 3 and 4 of 6
O=C1CC(c2ccc(Cl)cc2)C(=O)O1 (stereo not given),survivor count,"dose: 400.0 mg/kg/injection, schedule: Q04DX003 (ip), vehicle: alcohol",2 of 6
Clc1ccccc1/C=C1\c2ccc(Br)cc2-c2cccc[n+]21,survivor count,"dose: 150.0 mg/kg/injection, schedule: Q01DX001 (ip), vehicle: other",1 of 6
same,survivor count,"dose: 300.0 mg/kg/injection, schedule: Q01DX001 (ip), vehicle: other",0 of 6
O=C(Nc1cccc(C(F)(F)F)c1)Nc1cccc(C(F)(F)F)c1,survivor count,[2],6 of 6
N#Cc1ccccc1NC(=S)Nc1ccc([N+](=O)[O-])cc1,survivor count,[14],3 of 3
same,survivor count,[6],0 of 3
CC(C)(O)C(C)(O)c1cccc(Cl)c1 (stereo not given),survivor count,[12],2 of 4
C/C(Cc1cc(C)[nH]c(=S)n1)=N\NC(N)=O,survivor count,[6],3 of 3
COC(OC)c1[nH]c(=S)[nH]c(=O)c1Cc1ccccc1,survivor count,[14],6 of 6
same,survivor count,[7],6 of 6
